These are yes or no findings as the source states them, for the method shown. In cells and extracts the contact can be indirect. Some binding calls cover weakened binding; strength is not graded here. Tags and fused reporters may be left off the sequences shown.

Amino acid sequences for entries named in this document (tags omitted). Residues count along the entry.
UniProt P56703, residues 22-355: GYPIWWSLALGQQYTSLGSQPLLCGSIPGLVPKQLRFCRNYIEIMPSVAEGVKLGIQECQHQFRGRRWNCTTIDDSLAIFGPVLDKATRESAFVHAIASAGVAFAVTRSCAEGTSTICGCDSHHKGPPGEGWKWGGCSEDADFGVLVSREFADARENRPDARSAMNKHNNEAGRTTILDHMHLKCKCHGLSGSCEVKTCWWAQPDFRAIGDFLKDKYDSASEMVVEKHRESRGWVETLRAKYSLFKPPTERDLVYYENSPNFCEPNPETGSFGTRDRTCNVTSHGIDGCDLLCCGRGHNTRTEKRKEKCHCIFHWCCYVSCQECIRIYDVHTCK
UniProt P49336: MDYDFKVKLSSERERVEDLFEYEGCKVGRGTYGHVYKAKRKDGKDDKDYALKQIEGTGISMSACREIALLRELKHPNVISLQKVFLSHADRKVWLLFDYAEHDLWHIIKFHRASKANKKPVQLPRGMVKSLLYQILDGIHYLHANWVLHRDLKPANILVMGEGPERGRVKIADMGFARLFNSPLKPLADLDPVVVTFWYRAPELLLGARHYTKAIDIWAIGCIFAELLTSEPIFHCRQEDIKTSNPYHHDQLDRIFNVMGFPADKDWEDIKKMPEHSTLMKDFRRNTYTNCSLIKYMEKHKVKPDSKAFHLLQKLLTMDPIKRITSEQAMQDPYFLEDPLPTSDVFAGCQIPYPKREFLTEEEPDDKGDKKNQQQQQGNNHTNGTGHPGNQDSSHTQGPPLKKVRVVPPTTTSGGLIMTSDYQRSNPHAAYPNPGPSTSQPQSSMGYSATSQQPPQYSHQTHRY
UniProt Q2I0M5, residues 20-234: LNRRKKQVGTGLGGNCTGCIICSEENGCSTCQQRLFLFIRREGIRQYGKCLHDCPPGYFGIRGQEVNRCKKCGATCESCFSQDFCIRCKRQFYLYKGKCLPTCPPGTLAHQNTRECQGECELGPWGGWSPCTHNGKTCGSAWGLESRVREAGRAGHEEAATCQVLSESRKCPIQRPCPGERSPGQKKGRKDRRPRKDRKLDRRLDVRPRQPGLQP
UniProt Q9BWU1: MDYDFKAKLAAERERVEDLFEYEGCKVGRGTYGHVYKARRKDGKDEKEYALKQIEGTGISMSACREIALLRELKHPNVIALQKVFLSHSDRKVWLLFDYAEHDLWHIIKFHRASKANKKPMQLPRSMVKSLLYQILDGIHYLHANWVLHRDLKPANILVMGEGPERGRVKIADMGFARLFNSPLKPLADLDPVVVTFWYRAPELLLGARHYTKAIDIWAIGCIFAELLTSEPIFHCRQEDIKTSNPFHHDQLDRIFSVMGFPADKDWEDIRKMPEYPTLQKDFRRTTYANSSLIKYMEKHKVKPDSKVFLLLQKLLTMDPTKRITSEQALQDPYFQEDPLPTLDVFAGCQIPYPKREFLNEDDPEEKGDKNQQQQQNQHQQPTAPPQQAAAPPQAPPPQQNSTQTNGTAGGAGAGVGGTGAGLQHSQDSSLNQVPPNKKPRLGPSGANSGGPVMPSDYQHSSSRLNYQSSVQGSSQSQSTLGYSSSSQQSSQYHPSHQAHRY
UniProt P27361: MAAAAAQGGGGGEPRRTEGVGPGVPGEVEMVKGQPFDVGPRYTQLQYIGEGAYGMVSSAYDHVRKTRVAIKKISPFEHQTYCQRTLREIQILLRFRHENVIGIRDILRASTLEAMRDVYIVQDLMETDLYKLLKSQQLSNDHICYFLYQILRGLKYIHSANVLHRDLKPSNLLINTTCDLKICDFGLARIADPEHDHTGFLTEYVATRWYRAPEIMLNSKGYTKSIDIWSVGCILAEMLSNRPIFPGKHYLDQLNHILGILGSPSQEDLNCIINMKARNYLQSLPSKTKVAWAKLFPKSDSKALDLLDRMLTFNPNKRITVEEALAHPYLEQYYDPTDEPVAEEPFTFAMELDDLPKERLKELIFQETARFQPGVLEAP
UniProt P35916, residues 25-1363: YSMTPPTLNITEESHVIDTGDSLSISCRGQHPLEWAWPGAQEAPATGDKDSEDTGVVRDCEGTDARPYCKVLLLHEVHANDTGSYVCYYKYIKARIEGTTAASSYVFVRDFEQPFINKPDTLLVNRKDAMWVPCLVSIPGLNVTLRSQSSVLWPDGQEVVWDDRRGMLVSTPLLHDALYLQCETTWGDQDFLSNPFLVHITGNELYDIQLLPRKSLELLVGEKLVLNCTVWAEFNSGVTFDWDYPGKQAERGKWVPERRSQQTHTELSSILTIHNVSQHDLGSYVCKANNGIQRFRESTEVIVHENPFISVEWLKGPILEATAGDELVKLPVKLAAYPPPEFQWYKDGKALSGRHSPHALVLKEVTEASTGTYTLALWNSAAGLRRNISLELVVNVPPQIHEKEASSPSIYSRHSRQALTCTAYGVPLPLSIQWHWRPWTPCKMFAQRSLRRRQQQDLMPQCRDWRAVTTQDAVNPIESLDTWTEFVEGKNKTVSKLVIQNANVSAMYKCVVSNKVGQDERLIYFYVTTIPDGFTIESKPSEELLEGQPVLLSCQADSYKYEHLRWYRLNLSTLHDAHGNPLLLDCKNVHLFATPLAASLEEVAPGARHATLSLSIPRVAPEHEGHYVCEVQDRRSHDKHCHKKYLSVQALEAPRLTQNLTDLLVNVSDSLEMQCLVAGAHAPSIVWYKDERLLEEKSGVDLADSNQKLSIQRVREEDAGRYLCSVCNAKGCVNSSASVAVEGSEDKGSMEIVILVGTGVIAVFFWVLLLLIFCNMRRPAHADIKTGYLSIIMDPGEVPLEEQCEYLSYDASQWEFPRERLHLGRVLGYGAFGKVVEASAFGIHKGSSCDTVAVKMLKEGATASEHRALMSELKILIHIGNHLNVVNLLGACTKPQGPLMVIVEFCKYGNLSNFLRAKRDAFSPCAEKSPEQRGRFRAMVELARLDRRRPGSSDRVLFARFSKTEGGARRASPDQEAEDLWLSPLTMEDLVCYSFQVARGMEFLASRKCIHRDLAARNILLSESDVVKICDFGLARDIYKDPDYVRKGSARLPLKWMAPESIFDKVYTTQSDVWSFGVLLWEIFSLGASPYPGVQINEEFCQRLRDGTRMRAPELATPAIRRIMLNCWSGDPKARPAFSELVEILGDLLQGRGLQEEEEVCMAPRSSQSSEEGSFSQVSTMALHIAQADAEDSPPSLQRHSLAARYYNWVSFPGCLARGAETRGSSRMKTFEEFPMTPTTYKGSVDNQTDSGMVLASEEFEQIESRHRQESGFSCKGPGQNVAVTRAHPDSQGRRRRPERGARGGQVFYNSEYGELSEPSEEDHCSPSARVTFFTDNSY

Consider seven molecules from publication PMC8610286.

One test addresses T1, FLAG-tagged SHC2 (UniProt P98077).
T1 sequence: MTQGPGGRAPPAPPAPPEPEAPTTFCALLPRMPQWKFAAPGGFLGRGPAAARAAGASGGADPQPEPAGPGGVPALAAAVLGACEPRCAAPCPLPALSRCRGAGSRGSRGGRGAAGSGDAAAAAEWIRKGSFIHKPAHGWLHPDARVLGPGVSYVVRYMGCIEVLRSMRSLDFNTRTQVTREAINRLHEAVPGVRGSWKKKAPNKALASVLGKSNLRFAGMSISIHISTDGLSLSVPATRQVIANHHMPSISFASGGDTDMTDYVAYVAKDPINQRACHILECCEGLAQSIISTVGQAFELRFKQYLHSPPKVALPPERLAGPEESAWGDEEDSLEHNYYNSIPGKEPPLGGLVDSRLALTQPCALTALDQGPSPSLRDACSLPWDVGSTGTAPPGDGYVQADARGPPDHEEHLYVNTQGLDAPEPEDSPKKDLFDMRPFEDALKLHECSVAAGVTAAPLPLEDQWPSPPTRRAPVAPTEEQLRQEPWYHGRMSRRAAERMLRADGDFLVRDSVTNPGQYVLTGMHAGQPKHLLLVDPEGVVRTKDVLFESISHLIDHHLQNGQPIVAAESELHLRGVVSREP
The test can be described thus: co-IP; LN229 glioblastoma cells co-transfected with an HA-tagged construct of a predicted gene and FLAG-tagged WNT3 or FLAG-tagged SHC2; interactions determined by immunoblotting.

For a further test, the target named is FLAG-tagged WNT3 (UniProt P56703). The test is described as above.

On to “HA-tagged CDK8 (from UniProt P49336 1-464)”, for which the binding entry with FLAG-tagged SHC2 and with FLAG-tagged WNT3 was “binds” throughout.
Take “HA-tagged RSPO4 (from UniProt Q2I0M5 20-234)”: the binding result with FLAG-tagged SHC2 and with FLAG-tagged WNT3 was “binds” in each case.
With “HA-tagged CDK19 (from UniProt Q9BWU1 1-502)”, the binding result with FLAG-tagged SHC2 and with FLAG-tagged WNT3 was “binds” in each case.
For “HA-tagged MAPK3 (from UniProt P27361 1-379)”, the binding result in the test with FLAG-tagged SHC2 and with FLAG-tagged WNT3 was “binds” throughout.
Regarding “HA-tagged VGFR3 (from UniProt P35916 25-1363)”, the binding entry with FLAG-tagged SHC2 and with FLAG-tagged WNT3 was “binds” in each case.

B1: HA-tagged ZN619 (protein, UniProt Q8N2I2 1-560)
chain: MGQPAPYAEGPIQGGDAGELCKCDFLVSISIPQTRSDIPAGARRSSMGPRSLDTCWGRGPERHVHRLECNGVIFTHRNLCLPGGKTKTENEEKTAQLNISKESESHRLIVEGLLMDVPQHPDFKDRLEKSQLHDTGNKTKIGDCTDLTVQDHESSTTEREEIARKLEESSVSTHLITKQGFAKEQVFYKCGECGSYYNPHSDFHLHQRVHTNEKPYTCKECGKTFRYNSKLSRHQKIHTGEKPYSCEECGQAFSQNSHLLQHQKLHGGQRPYECTDCGKTFSYNSKLIRHQRIHTGEKPFKCKECGKAFSCSYDCIIHERIHNGEKPYECKECGKSLSSNSVLIQHQRIHTGEKPYECKECGKAFHRSSVFLQHQRFHTGEQLYKCNECWKTFSCSSRFIVHQRIHNGEKPYECQECGKTFSQKITLVQHQRVHTGEKPYECKECGKAFRWNASFIQHQKWHTRKKLINGTGLSAVKPYCPCAILSPLPPQHTCSALAPPGPPLSSSHAVVLPPSVPFFLLLPSSEKANPSPVQIAHFFQDLAFPGKSSLQSPNPLSHSL
For B1, the binding entry in the test with FLAG-tagged SHC2 was “binds”; with FLAG-tagged WNT3 it was “no binding”.

B2: HA-tagged LHX1 (protein, UniProt P48742 1-406)
chain: MVHCAGCKRPILDRFLLNVLDRAWHVKCVQCCECKCNLTEKCFSREGKLYCKNDFFRCFGTKCAGCAQGISPSDLVRRARSKVFHLNCFTCMMCNKQLSTGEELYIIDENKFVCKEDYLSNSSVAKENSLHSATTGSDPSLSPDSQDPSQDDAKDSESANVSDKEAGSNENDDQNLGAKRRGPRTTIKAKQLETLKAAFAATPKPTRHIREQLAQETGLNMRVIQVWFQNRRSKERRMKQLSALGARRHAFFRSPRRMRPLVDRLEPGELIPNGPFSFYGDYQSEYYGPGGNYDFFPQGPPSSQAQTPVDLPFVPSSGPSGTPLGGLEHPLPGHHPSSEAQRFTDILAHPPGDSPSPEPSLPGPLHSMSAEVFGPSPPFSSLSVNGGASYGNHLSHPPEMNEAAVW
On to B2, for which the binding result in the test with FLAG-tagged SHC2 and with FLAG-tagged WNT3 was “binds” each time.
